Laboratory results: paper PMC3889402
Results are given in words; binding and its absence hold for the method and conditions named. For part of these data: Binding seen in cells or lysates may run through a third protein. Some results given as binding are weak or reduced against the parent protein; the word gives no strength. For part of these data: Tags and fused reporters may be left off the sequences shown.

Sequences of proteins named here, by UniProt entry; tags and fusion partners are left off.
UniProt Q9UKV5: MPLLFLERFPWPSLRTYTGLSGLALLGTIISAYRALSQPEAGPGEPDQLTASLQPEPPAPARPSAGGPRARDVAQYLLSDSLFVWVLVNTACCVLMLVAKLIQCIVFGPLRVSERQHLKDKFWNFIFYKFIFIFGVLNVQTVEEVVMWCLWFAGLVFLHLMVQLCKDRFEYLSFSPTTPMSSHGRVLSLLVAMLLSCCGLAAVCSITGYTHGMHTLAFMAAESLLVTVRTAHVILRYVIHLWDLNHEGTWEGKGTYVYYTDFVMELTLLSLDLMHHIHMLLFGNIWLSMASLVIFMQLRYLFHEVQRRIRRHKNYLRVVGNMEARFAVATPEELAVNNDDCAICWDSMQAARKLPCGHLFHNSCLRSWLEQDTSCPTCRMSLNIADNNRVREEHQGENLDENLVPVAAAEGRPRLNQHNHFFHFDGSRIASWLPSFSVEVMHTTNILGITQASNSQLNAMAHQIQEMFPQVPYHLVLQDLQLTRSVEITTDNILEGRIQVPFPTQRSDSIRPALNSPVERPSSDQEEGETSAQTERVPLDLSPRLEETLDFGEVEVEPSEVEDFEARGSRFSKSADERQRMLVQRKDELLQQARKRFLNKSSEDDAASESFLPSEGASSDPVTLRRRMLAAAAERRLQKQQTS
UniProt P46379: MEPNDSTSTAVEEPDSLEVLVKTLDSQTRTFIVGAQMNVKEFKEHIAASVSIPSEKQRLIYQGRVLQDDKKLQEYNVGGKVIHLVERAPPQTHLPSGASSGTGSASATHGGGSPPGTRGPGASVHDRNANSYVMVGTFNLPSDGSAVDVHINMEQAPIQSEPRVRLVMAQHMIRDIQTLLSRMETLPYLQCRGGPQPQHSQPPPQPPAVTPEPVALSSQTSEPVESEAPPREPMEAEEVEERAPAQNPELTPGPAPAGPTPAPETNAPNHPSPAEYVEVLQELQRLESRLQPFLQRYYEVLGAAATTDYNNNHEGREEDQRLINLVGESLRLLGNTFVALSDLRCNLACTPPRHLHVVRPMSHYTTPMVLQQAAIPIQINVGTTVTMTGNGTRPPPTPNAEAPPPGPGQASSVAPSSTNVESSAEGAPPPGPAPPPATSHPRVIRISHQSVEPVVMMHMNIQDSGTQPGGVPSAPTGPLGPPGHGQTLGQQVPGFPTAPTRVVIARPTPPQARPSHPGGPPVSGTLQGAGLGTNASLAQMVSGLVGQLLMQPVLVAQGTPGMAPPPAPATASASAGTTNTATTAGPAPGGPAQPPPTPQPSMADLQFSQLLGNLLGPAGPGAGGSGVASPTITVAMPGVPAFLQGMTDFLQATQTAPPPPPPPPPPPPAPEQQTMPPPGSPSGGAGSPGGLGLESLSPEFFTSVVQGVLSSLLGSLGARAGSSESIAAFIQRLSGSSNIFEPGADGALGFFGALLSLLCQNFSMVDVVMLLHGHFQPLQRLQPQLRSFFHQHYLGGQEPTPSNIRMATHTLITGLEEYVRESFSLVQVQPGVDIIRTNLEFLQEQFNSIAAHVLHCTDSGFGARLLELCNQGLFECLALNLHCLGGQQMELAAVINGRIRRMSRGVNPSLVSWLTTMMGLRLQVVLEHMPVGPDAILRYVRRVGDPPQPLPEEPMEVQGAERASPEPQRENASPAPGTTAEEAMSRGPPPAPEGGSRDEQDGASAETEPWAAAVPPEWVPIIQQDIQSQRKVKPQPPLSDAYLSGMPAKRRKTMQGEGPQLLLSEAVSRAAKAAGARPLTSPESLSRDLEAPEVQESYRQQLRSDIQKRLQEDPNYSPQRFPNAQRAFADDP
UniProt Q7L5D6: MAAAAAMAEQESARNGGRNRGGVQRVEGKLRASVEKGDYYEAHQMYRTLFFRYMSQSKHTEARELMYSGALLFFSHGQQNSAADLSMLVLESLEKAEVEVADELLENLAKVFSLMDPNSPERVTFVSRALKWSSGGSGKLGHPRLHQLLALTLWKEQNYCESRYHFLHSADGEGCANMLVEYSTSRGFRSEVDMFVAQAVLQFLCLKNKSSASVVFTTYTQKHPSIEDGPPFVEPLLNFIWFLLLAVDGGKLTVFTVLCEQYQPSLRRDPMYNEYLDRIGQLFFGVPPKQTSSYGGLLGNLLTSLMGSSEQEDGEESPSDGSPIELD

Experiments:
[1] = biological target: T1, GST-USP13 (UniProt Q92995); test: pull-down; purified GST-tagged protein immobilised on glutathione beads and incubated with recombinant or purified protein; immunoblotting; both purified
T1 sequence: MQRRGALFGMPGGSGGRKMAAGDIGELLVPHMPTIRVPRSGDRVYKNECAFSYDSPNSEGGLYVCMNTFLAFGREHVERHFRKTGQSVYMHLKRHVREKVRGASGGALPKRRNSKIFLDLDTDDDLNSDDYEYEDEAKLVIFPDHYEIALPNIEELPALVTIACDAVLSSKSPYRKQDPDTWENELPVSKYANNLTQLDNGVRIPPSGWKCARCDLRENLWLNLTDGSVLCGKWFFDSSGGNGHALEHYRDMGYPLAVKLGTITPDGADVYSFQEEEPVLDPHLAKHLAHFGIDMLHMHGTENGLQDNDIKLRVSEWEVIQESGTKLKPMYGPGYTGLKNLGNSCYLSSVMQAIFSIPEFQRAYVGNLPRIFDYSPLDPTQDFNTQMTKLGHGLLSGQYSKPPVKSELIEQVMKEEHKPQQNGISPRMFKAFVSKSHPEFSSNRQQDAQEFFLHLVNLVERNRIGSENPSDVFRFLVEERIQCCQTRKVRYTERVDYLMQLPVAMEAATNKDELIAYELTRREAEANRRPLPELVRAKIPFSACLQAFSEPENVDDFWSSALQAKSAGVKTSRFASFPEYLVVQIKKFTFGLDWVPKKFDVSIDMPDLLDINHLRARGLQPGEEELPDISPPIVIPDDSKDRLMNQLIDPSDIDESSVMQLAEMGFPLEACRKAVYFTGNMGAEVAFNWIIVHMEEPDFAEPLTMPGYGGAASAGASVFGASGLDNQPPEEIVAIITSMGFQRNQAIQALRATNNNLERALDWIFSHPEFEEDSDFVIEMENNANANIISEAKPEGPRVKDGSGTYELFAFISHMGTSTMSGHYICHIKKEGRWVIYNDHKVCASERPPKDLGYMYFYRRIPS

[2] = biological target: overexpressed gp78 (UniProt Q9UKV5); test: co-IP; sequential immunoprecipitation: extract of cells expressing FLAG-USP13 and untagged gp78, first FLAG beads, elution with FLAG peptide (0.2 mg/ml), then anti-gp78 or control antibody
[3] = biological target: T2, FLAG-USP13 (UniProt Q92995); test: co-IP; extracts of transfected cells (FLAG-tagged DUB or chimera, in part with gp78), immunoprecipitation with FLAG beads; NP40 lysis buffer; immunoblotting
T2 sequence: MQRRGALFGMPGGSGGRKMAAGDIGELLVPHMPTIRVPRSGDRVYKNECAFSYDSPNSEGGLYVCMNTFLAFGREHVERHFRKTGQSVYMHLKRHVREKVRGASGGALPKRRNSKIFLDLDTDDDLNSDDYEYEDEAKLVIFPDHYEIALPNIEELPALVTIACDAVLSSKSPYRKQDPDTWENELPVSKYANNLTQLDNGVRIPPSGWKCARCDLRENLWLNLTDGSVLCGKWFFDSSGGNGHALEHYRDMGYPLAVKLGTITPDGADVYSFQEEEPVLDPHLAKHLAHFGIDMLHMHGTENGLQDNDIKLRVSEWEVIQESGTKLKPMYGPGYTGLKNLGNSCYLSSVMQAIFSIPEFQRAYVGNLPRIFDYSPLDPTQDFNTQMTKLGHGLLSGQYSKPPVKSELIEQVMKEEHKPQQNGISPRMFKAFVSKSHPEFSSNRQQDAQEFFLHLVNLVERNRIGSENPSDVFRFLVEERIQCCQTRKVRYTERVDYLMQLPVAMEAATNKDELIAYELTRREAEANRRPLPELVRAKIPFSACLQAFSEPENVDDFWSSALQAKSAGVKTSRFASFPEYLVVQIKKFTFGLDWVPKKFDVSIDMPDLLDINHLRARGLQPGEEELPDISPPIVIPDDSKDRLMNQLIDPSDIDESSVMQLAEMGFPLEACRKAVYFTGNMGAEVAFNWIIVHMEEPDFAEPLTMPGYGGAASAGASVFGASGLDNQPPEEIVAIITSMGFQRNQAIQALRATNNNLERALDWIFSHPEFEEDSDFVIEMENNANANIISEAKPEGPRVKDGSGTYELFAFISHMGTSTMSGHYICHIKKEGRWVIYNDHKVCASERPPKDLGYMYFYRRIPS

| Substance | binding [1] | binding [2] | binding [3] |
| --- | --- | --- | --- |
| Bag6 purified from mammalian cells (from UniProt P46379 1-1132) | binds |  |  |
| endogenous Trc35 (from UniProt Q7L5D6 1-327) |  | binds | binds |
